Test results: article PMC11193767

Amino acid sequences for entries named in this document (tags omitted).
UniProt Q8IWT6: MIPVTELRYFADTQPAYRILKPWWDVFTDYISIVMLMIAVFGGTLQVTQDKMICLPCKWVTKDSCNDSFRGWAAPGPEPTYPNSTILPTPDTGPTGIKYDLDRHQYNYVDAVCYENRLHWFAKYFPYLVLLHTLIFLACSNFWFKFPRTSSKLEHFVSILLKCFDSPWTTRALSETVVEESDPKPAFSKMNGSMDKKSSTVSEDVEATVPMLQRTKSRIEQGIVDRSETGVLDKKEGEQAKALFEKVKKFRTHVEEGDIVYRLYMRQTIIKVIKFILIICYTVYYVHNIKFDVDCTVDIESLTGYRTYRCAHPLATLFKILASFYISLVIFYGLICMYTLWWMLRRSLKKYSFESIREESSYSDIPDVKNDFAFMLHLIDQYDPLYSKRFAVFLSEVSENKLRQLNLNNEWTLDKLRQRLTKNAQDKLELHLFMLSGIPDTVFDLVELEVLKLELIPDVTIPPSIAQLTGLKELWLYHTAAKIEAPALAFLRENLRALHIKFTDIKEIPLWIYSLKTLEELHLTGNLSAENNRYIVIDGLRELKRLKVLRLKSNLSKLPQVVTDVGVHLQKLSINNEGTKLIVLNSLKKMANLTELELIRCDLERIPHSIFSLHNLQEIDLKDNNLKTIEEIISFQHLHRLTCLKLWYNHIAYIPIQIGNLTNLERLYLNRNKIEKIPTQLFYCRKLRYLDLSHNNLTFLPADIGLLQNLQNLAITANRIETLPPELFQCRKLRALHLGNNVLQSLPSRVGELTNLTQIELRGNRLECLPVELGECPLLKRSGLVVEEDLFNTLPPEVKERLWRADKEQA

B1: Zinc finger FYVE domain-containing protein 9 (protein, UniProt O95405-1 1-1425)
chain: MENYFQAEAYNLDKVLDEFEQNEDETVSSTLLDTKWNKILDPPSHRLSFNPTLASVNESAVSNESQPQLKVFSLAHSAPLTTEEEDHCANGQDCNLNPEIATMWIDENAVAEDQLIKRNYSWDDQCSAVEVGEKKCGNLACLPDEKNVLVVAVMHNCDKRTLQNDLQDCNNYNSQSLMDAFSCSLDNENRQTDQFSFSINESTEKDMNSEKQMDPLNRPKTEGRSVNHLCPTSSDSLASVCSPSQLKDDGSIGRDPSMSAITSLTVDSVISSQGTDGCPAVKKQENYIPDEDLTGKISSPRTDLGSPNSFSHMSEGILMKKEPAEESTTEESLRSGLPLLLKPDMPNGSGRNNDCERCSDCLVPNEVRADENEGYEHEETLGTTEFLNMTEHFSESQDMTNWKLTKLNEMNDSQVNEEKEKFLQISQPEDTNGDSGGQCVGLADAGLDLKGTCISESEECDFSTVIDTPAANYLSNGCDSYGMQDPGVSFVPKTLPSKEDSVTEEKEIEESKSECYSNIYEQRGNEATEGSGLLLNSTGDLMKKNYLHNFCSQVPSVLGQSSPKVVASLPSISVPFGGARPKQPSNLKLQIPKPLSDHLQNDFPANSGNNTKNKNDILGKAKLGENSATNVCSPSLGNISNVDTNGEHLESYEAEISTRPCLALAPDSPDNDLRAGQFGISARKPFTTLGEVAPVWVPDSQAPNCMKCEARFTFTKRRHHCRACGKVFCASCCSLKCKLLYMDRKEARVCVICHSVLMNAQAWENMMSASSQSPNPNNPAEYCSTIPPLQQAQASGALSSPPPTVMVPVGVLKHPGAEVAQPREQRRVWFADGILPNGEVADAAKLTMNGTSSAGTLAVSHDPVKPVTTSPLPAETDICLFSGSITQVGSPVGSAMNLIPEDGLPPILISTGVKGDYAVEEKPSQISVMQQLEDGGPDPLVFVLNANLLSMVKIVNYVNRKCWCFTTKGMHAVGQSEIVILLQCLPDEKCLPKDIFNHFVQLYRDALAGNVVSNLGHSFFSQSFLGSKEHGGFLYVTSTYQSLQDLVLPTPPYLFGILIQKWETPWAKVFPIRLMLRLGAEYRLYPCPLFSVRFRKPLFGETGHTIMNLLADFRNYQYTLPVVQGLVVDMEVRKTSIKIPSNRYNEMMKAMNKSNEHVLAGGACFNEKADSHLVCVQNDDGNYQTQAISIHNQPRKVTGASFFVFSGALKSSSGYLAKSSIVEDGVMVQITAENMDSLRQALREMKDFTITCGKADAEEPQEHIHIQWVDDDKNVSKGVVSPIDGKSMETITNVKIFHGSEYKANGKVIRWTEVFFLENDDQHNCLSDPADHSRLTEHVAKAFCLALCPHLKLLKEDGMTKLGLRVTLDSDQVGYQAGSNGQPLPSQYMNDLDSALVPVIHGGACQLSEGPVVMELIFYILENIV
B2: Threonylcarbamoyladenosine tRNA methylthiotransferase (protein, UniProt Q5VV42-1 1-579)
chain: MPSASCDTLLDDIEDIVSQEDSKPQDRHFVRKDVVPKVRRRNTQKYLQEEENSPPSDSTIPGIQKIWIRTWGCSHNNSDGEYMAGQLAAYGYKITENASDADLWLLNSCTVKNPAEDHFRNSIKKAQEENKKIVLAGCVPQAQPRQDYLKGLSIIGVQQIDRVVEVVEETIKGHSVRLLGQKKDNGRRLGGARLDLPKIRKNPLIEIISINTGCLNACTYCKTKHARGNLASYPIDELVDRAKQSFQEGVCEIWLTSEDTGAYGRDIGTNLPTLLWKLVEVIPEGAMLRLGMTNPPYILEHLEEMAKILNHPRVYAFLHIPVQSASDSVLMEMKREYCVADFKRVVDFLKEKVPGITIATDIICGFPGETDQDFQETVKLVEEYKFPSLFINQFYPRPGTPAAKMEQVPAQVKKQRTKDLSRVFHSYSPYDHKIGERQQVLVTEESFDSKFYVAHNQFYEQVLVPKNPAFMGKMVEVDIYESGKHFMKGQPVSDAKVYTPSISKPLAKGEVSGLTKDFRNGLGNQLSSGSHTSAASQCDSASSRMVLPMPRLHQDCALRMSVGLALLGLLFAFFVKVYN
B3: Catenin delta-1 (protein, UniProt O60716-1 1-968)
chain: MDDSEVESTASILASVKEQEAQFEKLTRALEEERRHVSAQLERVRVSPQDANPLMANGTLTRRHQNGRFVGDADLERQKFSDLKLNGPQDHSHLLYSTIPRMQEPGQIVETYTEEDPEGAMSVVSVETSDDGTTRRTETTVKKVVKTVTTRTVQPVAMGPDGLPVDASSVSNNYIQTLGRDFRKNGNGGPGPYVGQAGTATLPRNFHYPPDGYSRHYEDGYPGGSDNYGSLSRVTRIEERYRPSMEGYRAPSRQDVYGPQPQVRVGGSSVDLHRFHPEPYGLEDDQRSMGYDDLDYGMMSDYGTARRTGTPSDPRRRLRSYEDMIGEEVPSDQYYWAPLAQHERGSLASLDSLRKGGPPPPNWRQPELPEVIAMLGFRLDAVKSNAAAYLQHLCYRNDKVKTDVRKLKGIPVLVGLLDHPKKEVHLGACGALKNISFGRDQDNKIAIKNCDGVPALVRLLRKARDMDLTEVITGTLWNLSSHDSIKMEIVDHALHALTDEVIIPHSGWEREPNEDCKPRHIEWESVLTNTAGCLRNVSSERSEARRKLRECDGLVDALIFIVQAEIGQKDSDSKLVENCVCLLRNLSYQVHREIPQAERYQEAAPNVANNTGPHAASCFGAKKGKDEWFSRGKKPIEDPANDTVDFPKRTSPARGYELLFQPEVVRIYISLLKESKTPAILEASAGAIQNLCAGRWTYGRYIRSALRQEKALSAIADLLTNEHERVVKAASGALRNLAVDARNKELIGKHAIPNLVKNLPGGQQNSSWNFSEDTVISILNTINEVIAENLEAAKKLRETQGIEKLVLINKSGNRSEKEVRAAALVLQTIWGYKELRKPLEKEGWKKSDFQVNLNNASRSQSSHSYDDSTLPLIDRNQKSDKKPDREEIQMSNMGSNTKSLDNNYSTPNERGDHNRTLDRSGDLGDMEPLKGTTPLMQDEGQESLEEELDVLVLDDEGGQVSYPSMQKI
B4: Clathrin interactor 1 (protein, UniProt Q14677-3 1-643)
chain: MLNMWKVRELVDKATNVVMNYSEIESKVREATNDDPWGPSGQLMGEIAKATFMYEQFPELMNMLWSRMLKDNKKNWRRVYKSLLLLAYLIRNGSERVVTSAREHIYDLRSLENYHFVDEHGKDQGINIRQKVKELVEFAQDDDRLREERKKAKKNKDKYVGVSSDSVGGFRYSERYDPEPKSKWDEEWDKNKSAFPFSDKLGELSDKIGSTIDDTISKFRRKDREDSPERCSDSDEEKKARRGRSPKGEFKDEEETVTTKHIHITQATETTTTRHKRTANPSKTIDLGAAAHYTGDKASPDQNASTHTPQSSVKTSVPSSKSSGDLVDLFDGTSQSTGGSADLFGGFADFGSAAASGSFPSQVTATSGNGDFGDWSAFNQAPSGPVASSGEFFGSASQPAVELVSGSQSALGPPPAASNSSDLFDLMGSSQATMTSSQSMNFSMMSTNTVGLGLPMSRSQPLQNVSTVLQKPNPLYNQNTDMVQKSVSKTLPSTWSDPSVNISLDNLLPGMQPSKPQQPSLNTMIQQQNMQQPMNVMTQSFGAVNLSSPSNMLPVRPQTNALIGGPMPMSMPNVMTGTMGMAPLGNTPMMNQSMMGMNMNIGMSAAGMGLTGTMGMGMPNIAMTSGTVQPKQDAFANFANFSK
B5: Chloride channel CLIC-like protein 1 (protein, UniProt Q96S66-1 19-551)
chain: HDDDWIDPTDMLNYDAASGTMRKSQAKYGISGEKDVSPDLSCADEISECYHKLDSLTYKIDECEKKKREDYESQSNPVFRRYLNKILIEAGKLGLPDENKGDMHYDAEIILKRETLLEIQKFLNGEDWKPGALDDALSDILINFKFHDFETWKWRFEDSFGVDPYNVLMVLLCLLCIVVLVATELWTYVRWYTQLRRVLIISFLFSLGWNWMYLYKLAFAQHQAEVAKMEPLNNVCAKKMDWTGSIWEWFRSSWTYKDDPCQKYYELLLVNPIWLVPPTKALAVTFTTFVTEPLKHIGKGTGEFIKALMKEIPALLHLPVLIIMALAILSFCYGAGKSVHVLRHIGGPESEPPQALRPRDRRRQEEIDYRPDGGAGDADFHYRGQMGPTEQGPYAKTYEGRREILRERDVDLRFQTGNKSPEVLRAFDVPDAEAREHPTVVPSHKSPVLDTKPKETGGILGEGTPKESSTESSQSAKPVSGQDTSGNTEGSPAAEKAQLKSEAAGSPDQGSTYSPARGVAGPRGQDPVSSPCG

Each binder was assayed against LRRC8A-BirA*-HA fusion protein (human) (UniProt Q8IWT6) (assay: proximity labelling; BioID: HEK293 cells stably expressing LRRC8A-BirA*-HA (two clones), 50 uM biotin 24 h, RIPA lysis, streptavidin bead pull-down of biotinylated proteins, TMT labelling and LC-MS/MS; hits: FDR <= 0.05 and fold change >= 2 against the no-biotin control).

binding | Binder
binds | B1
binds | B2
binds | B3
binds | B4
binds | B5

Results are given in words; binding and its absence hold for the method and conditions named. In cells and extracts the contact can be indirect. Here binding means that the protein was enriched with, or labelled near, the bait; the list need not be complete.
